{"source": "PubChem BioAssay AID1259308 (NCATS, 2017)", "purpose": "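Genes whose loss raises luciferase production in HEK293 cells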 (primary screen)", "cell system": "human HEK293 embryonic kidney cells stably expressing firefly luciferase (HEK-CMV-Luc2-Hygro)", "reagent": "single siRNA against human genes, 0.8 pmol siRNA per well", "duration": "72 h", "measurement": "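Reporter luminescence and viable-cell signal on separate replicate plates, given as percent of non-targeting control and median/MAD z-scores, plus per-cell luciferase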", "direction": "total luciferase, z-score and total luciferase, % of control: higher = more reporter protein produced", "call rule": "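An siRNA counts as active if its total luciferase robust z-score exceeds 3; genes with two or more such siRNAs out of three were retested with fresh siRNAs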", "calls": "active = raised luciferase; inactive = no rise", "note": "Shown is one part, drawn at random, of about 59,000 reagents tested. About 1,510 of all reagents (2.6%) count as active. 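Calls use total luciferase alone and ignore viability, so some active siRNAs may act by altering cell number.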 The numbers tell different reagents against one gene apart. Not all columns of the deposit are shown. Reagent sequences are not shown."}
{"gene knocked down": "MYH8", "reagent": 1, "total luciferase, z-score": -0.565, "total luciferase, % of control": 70.6, "Outcome": "inactive"}
{"gene knocked down": "MYH8", "reagent": 2, "total luciferase, z-score": 0.273, "total luciferase, % of control": 87.3, "Outcome": "inactive"}
{"gene knocked down": "MYH8", "reagent": 3, "total luciferase, z-score": -0.754, "total luciferase, % of control": 66.9, "Outcome": "inactive"}
{"gene knocked down": "SNX18", "reagent": 1, "total luciferase, z-score": 1.96, "total luciferase, % of control": 121, "Outcome": "inactive"}
{"gene knocked down": "SNX18", "reagent": 2, "total luciferase, z-score": -1.3, "total luciferase, % of control": 56.1, "Outcome": "inactive"}
{"gene knocked down": "SNX18", "reagent": 3, "total luciferase, z-score": 0.255, "total luciferase, % of control": 87, "Outcome": "inactive"}
{"gene knocked down": "STIL", "reagent": 1, "total luciferase, z-score": 0.752, "total luciferase, % of control": 96.8, "Outcome": "inactive"}
{"gene knocked down": "STIL", "reagent": 2, "total luciferase, z-score": -1.56, "total luciferase, % of control": 50.8, "Outcome": "inactive"}
{"gene knocked down": "STIL", "reagent": 3, "total luciferase, z-score": -1.02, "total luciferase, % of control": 61.5, "Outcome": "inactive"}
{"gene knocked down": "THBD", "reagent": 1, "total luciferase, z-score": 1.89, "total luciferase, % of control": 119, "Outcome": "inactive"}
{"gene knocked down": "THBD", "reagent": 2, "total luciferase, z-score": 0.753, "total luciferase, % of control": 96.9, "Outcome": "inactive"}
{"gene knocked down": "THBD", "reagent": 3, "total luciferase, z-score": -1.34, "total luciferase, % of control": 55.2, "Outcome": "inactive"}

Reprinted from the entries so far (5 entries):
{"gene knocked down": "MYH8", "reagent": 1, "total luciferase, z-score": -0.565, "total luciferase, % of control": 70.6, "Outcome": "inactive"}
{"gene knocked down": "MYH8", "reagent": 2, "total luciferase, z-score": 0.273, "total luciferase, % of control": 87.3, "Outcome": "inactive"}
{"gene knocked down": "MYH8", "reagent": 3, "total luciferase, z-score": -0.754, "total luciferase, % of control": 66.9, "Outcome": "inactive"}
{"gene knocked down": "SNX18", "reagent": 1, "total luciferase, z-score": 1.96, "total luciferase, % of control": 121, "Outcome": "inactive"}
{"gene knocked down": "SNX18", "reagent": 2, "total luciferase, z-score": -1.3, "total luciferase, % of control": 56.1, "Outcome": "inactive"}

Continued.
{"gene knocked down": "OR2M4", "reagent": 1, "total luciferase, z-score": 0.24, "total luciferase, % of control": 86.7, "Outcome": "inactive"}
{"gene knocked down": "OR2M4", "reagent": 2, "total luciferase, z-score": -1.65, "total luciferase, % of control": 49.1, "Outcome": "inactive"}
{"gene knocked down": "OR2M4", "reagent": 3, "total luciferase, z-score": 0.912, "total luciferase, % of control": 100, "Outcome": "inactive"}
{"gene knocked down": "TEDC1", "reagent": 1, "total luciferase, z-score": 3.18, "total luciferase, % of control": 145, "Outcome": "active"}
{"gene knocked down": "TEDC1", "reagent": 2, "total luciferase, z-score": 2.76, "total luciferase, % of control": 137, "Outcome": "inactive"}
{"gene knocked down": "TEDC1", "reagent": 3, "total luciferase, z-score": -0.548, "total luciferase, % of control": 71, "Outcome": "inactive"}
{"gene knocked down": "TMEM14B", "reagent": 1, "total luciferase, z-score": 0.541, "total luciferase, % of control": 92.7, "Outcome": "inactive"}
{"gene knocked down": "TMEM14B", "reagent": 2, "total luciferase, z-score": -2.03, "total luciferase, % of control": 41.6, "Outcome": "inactive"}
{"gene knocked down": "TMEM14B", "reagent": 3, "total luciferase, z-score": -2.93, "total luciferase, % of control": 23.6, "Outcome": "inactive"}
{"gene knocked down": "STON2", "reagent": 1, "total luciferase, z-score": -1.48, "total luciferase, % of control": 52.5, "Outcome": "inactive"}
{"gene knocked down": "STON2", "reagent": 2, "total luciferase, z-score": -0.28, "total luciferase, % of control": 76.3, "Outcome": "inactive"}
{"gene knocked down": "STON2", "reagent": 3, "total luciferase, z-score": 1.97, "total luciferase, % of control": 121, "Outcome": "inactive"}
{"gene knocked down": "NMT2", "reagent": 1, "total luciferase, z-score": -0.729, "total luciferase, % of control": 67.4, "Outcome": "inactive"}
{"gene knocked down": "NMT2", "reagent": 2, "total luciferase, z-score": -0.278, "total luciferase, % of control": 76.4, "Outcome": "inactive"}
{"gene knocked down": "NMT2", "reagent": 3, "total luciferase, z-score": -0.436, "total luciferase, % of control": 73.2, "Outcome": "inactive"}
{"gene knocked down": "MAPK3", "reagent": 1, "total luciferase, z-score": -1.23, "total luciferase, % of control": 57.5, "Outcome": "inactive"}
{"gene knocked down": "MAPK3", "reagent": 2, "total luciferase, z-score": 0.0209, "total luciferase, % of control": 82.3, "Outcome": "inactive"}
{"gene knocked down": "MAPK3", "reagent": 3, "total luciferase, z-score": -0.323, "total luciferase, % of control": 75.5, "Outcome": "inactive"}
{"gene knocked down": "MPND", "reagent": 1, "total luciferase, z-score": -0.957, "total luciferase, % of control": 62.9, "Outcome": "inactive"}
{"gene knocked down": "MPND", "reagent": 2, "total luciferase, z-score": 0.792, "total luciferase, % of control": 97.6, "Outcome": "inactive"}
{"gene knocked down": "MPND", "reagent": 3, "total luciferase, z-score": -0.657, "total luciferase, % of control": 68.8, "Outcome": "inactive"}
